{"sequences": {"note": "Chains of the proteins cited; added tags and fusions are not shown. Lines headed by an entry give the natural chain unless they say otherwise; changes in a name come on top.", "UniProt Q9Y5K6, whole entry": "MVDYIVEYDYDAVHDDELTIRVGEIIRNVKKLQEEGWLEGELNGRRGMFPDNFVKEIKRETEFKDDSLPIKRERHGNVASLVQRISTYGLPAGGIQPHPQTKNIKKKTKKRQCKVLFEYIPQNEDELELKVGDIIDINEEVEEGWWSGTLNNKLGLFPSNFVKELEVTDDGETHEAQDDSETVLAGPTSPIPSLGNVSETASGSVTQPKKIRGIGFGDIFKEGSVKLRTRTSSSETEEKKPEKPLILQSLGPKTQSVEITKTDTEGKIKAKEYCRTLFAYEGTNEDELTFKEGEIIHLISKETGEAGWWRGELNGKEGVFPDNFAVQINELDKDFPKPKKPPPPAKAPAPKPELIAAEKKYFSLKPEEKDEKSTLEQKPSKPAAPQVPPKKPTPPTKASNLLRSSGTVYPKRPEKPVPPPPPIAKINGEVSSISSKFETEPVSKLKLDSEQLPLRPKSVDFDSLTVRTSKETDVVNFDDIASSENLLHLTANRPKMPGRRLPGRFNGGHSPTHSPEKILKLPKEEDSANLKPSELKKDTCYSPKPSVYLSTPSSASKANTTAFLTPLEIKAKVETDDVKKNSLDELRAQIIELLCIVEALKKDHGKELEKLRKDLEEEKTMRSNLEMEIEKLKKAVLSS", "UniProt Q9Y3C7": "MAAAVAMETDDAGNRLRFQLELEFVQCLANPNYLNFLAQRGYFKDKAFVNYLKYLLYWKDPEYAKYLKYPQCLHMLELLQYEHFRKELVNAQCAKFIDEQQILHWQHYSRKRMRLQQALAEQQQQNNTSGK", "UniProt Q9Y3D2": "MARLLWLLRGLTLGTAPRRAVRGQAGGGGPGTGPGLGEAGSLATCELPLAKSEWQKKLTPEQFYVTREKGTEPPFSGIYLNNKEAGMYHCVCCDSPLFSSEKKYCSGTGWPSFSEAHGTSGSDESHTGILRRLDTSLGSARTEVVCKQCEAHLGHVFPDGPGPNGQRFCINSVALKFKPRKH", "UniProt Q9Y6I3": "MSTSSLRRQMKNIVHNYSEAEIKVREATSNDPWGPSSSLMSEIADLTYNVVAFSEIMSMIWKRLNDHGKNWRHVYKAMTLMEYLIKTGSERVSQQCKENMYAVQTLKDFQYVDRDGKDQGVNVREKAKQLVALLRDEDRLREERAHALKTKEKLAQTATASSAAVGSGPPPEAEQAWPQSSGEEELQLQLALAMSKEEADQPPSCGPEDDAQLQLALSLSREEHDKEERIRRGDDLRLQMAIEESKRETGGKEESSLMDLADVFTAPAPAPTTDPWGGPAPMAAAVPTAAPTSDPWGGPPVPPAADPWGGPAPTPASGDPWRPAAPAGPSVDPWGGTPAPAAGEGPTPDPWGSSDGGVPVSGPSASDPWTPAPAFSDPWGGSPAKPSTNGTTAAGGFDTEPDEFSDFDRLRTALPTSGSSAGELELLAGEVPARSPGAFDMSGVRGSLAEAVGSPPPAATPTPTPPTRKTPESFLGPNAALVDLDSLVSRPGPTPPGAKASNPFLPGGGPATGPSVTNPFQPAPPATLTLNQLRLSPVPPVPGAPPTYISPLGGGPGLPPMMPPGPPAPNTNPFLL", "UniProt Q9Y5L4": "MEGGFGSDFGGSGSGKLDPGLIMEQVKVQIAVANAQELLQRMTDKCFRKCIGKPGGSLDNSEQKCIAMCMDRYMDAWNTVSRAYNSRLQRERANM", "UniProt Q9Y5X1": "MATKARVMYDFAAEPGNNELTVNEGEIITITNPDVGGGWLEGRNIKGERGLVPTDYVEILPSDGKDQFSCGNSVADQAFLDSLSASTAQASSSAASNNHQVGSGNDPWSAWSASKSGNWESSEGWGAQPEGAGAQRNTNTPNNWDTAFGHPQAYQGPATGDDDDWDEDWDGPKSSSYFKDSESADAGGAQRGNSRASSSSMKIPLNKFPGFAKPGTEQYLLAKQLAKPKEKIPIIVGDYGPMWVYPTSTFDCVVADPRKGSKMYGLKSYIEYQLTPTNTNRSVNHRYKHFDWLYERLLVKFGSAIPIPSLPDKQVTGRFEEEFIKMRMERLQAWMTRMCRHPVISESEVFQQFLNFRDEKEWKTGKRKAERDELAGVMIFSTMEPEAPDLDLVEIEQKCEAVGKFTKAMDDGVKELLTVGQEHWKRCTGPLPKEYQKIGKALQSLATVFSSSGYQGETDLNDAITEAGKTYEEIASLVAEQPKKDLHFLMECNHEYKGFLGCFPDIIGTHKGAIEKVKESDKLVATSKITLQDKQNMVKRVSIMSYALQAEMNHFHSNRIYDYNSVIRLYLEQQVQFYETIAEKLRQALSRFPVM", "UniProt Q9Y4B4": "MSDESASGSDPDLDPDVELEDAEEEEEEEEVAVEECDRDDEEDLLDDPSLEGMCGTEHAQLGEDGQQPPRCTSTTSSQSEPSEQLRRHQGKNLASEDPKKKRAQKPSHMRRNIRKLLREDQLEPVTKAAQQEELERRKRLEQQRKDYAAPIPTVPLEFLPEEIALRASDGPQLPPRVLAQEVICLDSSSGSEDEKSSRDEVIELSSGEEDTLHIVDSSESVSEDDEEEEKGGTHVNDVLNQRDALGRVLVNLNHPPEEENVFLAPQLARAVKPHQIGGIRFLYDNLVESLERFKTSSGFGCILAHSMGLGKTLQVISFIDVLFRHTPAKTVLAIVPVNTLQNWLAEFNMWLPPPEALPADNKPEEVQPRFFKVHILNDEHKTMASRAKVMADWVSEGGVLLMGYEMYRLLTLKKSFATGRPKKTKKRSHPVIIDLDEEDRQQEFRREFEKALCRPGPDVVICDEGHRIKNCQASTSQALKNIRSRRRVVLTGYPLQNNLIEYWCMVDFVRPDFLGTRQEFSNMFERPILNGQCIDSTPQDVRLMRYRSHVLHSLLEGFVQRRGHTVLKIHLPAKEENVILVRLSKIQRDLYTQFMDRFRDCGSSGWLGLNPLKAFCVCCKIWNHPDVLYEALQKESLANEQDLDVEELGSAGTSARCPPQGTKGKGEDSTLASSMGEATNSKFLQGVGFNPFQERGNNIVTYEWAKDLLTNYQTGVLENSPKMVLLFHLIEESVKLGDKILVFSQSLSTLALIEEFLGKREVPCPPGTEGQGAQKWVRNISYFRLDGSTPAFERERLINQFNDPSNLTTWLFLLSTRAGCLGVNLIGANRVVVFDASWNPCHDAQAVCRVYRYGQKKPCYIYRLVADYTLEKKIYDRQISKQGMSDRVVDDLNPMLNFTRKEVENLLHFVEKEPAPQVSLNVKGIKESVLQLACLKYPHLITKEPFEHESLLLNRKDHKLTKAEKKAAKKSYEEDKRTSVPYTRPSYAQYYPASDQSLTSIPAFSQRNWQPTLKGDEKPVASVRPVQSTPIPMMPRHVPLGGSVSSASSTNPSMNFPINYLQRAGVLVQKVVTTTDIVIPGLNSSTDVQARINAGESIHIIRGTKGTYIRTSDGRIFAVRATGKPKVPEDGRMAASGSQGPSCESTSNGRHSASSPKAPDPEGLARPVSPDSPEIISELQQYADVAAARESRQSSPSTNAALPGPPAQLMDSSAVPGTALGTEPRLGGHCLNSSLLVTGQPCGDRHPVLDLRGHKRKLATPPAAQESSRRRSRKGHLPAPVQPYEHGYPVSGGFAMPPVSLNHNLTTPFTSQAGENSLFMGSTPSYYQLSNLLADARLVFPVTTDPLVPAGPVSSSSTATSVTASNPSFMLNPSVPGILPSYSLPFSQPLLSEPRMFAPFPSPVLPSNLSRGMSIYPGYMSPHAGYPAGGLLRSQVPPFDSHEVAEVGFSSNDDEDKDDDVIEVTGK", "UniProt Q9Y6A4": "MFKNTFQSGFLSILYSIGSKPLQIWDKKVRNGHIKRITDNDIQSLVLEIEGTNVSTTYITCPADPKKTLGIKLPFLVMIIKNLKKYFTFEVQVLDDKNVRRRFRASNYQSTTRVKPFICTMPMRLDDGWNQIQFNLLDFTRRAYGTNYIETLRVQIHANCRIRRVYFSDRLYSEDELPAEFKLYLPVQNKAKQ", "UniProt Q9Y4X5": "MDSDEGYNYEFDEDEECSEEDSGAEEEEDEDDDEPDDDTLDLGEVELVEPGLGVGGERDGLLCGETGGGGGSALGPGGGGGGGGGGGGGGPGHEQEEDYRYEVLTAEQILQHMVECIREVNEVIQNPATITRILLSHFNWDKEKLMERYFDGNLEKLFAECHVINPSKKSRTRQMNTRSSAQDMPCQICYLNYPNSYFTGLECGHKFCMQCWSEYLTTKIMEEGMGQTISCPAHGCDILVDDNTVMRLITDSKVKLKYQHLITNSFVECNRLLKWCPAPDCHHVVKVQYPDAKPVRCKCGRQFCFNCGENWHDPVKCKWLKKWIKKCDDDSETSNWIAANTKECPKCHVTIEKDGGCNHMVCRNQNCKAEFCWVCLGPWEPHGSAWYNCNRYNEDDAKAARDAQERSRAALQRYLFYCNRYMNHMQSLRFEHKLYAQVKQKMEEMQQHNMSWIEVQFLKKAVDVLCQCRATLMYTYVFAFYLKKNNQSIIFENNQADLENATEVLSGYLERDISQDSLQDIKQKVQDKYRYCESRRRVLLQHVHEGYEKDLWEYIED", "UniProt Q9Y5A6": "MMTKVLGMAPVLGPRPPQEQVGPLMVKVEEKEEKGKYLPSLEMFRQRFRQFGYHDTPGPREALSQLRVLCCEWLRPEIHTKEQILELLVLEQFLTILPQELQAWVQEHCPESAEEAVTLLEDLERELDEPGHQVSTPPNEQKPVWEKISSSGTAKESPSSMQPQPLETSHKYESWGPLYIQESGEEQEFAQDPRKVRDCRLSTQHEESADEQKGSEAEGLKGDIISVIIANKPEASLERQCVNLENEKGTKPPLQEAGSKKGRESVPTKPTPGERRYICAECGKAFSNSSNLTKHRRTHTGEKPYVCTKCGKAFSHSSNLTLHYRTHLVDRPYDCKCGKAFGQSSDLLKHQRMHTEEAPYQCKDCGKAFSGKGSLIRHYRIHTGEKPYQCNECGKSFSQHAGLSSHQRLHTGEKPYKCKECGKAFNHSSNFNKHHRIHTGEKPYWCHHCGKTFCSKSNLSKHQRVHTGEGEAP", "UniProt Q9Y5Q8": "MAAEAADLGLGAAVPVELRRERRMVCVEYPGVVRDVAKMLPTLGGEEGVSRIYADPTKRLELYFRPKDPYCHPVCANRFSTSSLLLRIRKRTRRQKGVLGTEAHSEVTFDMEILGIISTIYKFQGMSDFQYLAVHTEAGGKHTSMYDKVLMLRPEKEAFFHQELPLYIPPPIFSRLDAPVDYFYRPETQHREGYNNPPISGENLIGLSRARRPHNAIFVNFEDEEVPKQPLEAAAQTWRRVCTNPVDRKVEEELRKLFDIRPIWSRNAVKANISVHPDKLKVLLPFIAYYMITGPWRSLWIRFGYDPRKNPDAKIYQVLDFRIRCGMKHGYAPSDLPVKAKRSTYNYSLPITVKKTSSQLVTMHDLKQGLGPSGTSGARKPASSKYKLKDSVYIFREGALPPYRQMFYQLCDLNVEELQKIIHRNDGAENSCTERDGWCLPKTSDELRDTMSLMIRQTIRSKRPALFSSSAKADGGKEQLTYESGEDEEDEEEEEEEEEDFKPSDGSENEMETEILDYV", "UniProt Q9Y678": "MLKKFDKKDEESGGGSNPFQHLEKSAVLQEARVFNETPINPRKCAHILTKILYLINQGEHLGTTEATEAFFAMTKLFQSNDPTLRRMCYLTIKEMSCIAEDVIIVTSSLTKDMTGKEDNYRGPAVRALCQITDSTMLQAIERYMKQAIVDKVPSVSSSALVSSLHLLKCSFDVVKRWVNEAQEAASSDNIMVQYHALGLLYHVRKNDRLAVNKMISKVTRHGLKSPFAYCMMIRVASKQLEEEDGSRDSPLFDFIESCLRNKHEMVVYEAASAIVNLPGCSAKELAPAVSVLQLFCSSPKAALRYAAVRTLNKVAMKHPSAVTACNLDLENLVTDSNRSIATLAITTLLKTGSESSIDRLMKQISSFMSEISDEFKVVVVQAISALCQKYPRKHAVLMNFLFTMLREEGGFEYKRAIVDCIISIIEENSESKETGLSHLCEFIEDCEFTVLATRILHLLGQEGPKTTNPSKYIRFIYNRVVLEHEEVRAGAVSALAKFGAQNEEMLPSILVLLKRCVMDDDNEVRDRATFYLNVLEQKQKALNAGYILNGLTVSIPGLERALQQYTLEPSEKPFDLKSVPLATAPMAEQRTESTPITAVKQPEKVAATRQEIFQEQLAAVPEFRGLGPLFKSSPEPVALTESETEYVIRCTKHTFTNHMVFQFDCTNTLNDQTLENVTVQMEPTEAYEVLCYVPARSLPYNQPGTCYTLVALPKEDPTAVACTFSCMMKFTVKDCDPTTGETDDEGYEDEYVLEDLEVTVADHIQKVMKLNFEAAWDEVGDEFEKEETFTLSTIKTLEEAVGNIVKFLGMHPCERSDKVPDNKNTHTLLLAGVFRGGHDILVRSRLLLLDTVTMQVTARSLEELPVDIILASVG", "UniProt Q9Y478": "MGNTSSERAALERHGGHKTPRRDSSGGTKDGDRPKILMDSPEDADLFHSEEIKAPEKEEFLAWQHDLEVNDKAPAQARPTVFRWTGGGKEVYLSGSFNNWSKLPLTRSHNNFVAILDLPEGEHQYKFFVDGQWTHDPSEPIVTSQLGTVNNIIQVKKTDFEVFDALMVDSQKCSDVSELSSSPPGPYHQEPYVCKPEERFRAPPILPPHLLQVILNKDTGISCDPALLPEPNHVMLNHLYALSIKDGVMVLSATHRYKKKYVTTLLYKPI"}, "source": "the supplement of paper PMC12819154", "about": "“High-throughput peptide-centric local stability assay extends protein–ligand identification to membrane proteins, tissues and bacteria” (Nature Structural & Molecular Biology, 2025)", "note": "Some of the results follow. Most entries show no effect beyond the scatter of the controls."}
{"compound": "CN[C@@H]1C[C@H]2O[C@@](C)([C@@H]1OC)n1c3ccccc3c3c4c(c5c6ccccc6n2c5c31)C(=O)NC4 [staurosporine]", "experiment": "log2 fold change of tryptic peptide abundance, ligand vs vehicle (limited proteolysis) (log2 ratio); higher = more trypsin-susceptible (destabilized)", "conditions": "ligand concentration: 20 uM; sample: K562 cleared lysate; digestion: 4 min, 22 C (HT-PELSA RT4min, Orbitrap Astral)"}
{"target": "LSM4 (peptide sequence: IPDEIIDMVKEEVVAK, peptide start residue: 71) (UniProt Q9Y4Z0)", "log2 fold change": 0.175}
{"target": "CD2AP (peptide sequence: ANTTAFLTPLEIK, peptide start residue: 558) (UniProt Q9Y5K6)", "log2 fold change": -0.48}
{"target": "GOLT1B (peptide sequence: RVPVLGSLLNLPGIR, peptide start residue: 111) (UniProt Q9Y3E0)", "log2 fold change": 0.231}
{"target": "MED31 (peptide sequence: FIDEQQILHWQHYSR, peptide start residue: 96) (UniProt Q9Y3C7)", "log2 fold change": 0.159}
{"target": "CTDP1 (peptide sequence: ENSPAAFPDR, peptide start residue: 738) (UniProt Q9Y5B0)", "log2 fold change": -0.207}
{"target": "MSRB2 (peptide sequence: LTPEQFYVTR, peptide start residue: 58) (UniProt Q9Y3D2)", "log2 fold change": -0.101}
{"target": "EPN1 (peptide sequence: QLVALLRDEDR, peptide start residue: 129) (UniProt Q9Y6I3)", "log2 fold change": 0.236}
{"target": "TIMM10B (peptide sequence: MTELCFQR, peptide start residue: 24) (UniProt Q9Y5J6)", "log2 fold change": 0.392}
{"target": "TIMM13 (peptide sequence: VQIAVANAQELLQR, peptide start residue: 28) (UniProt Q9Y5L4)", "log2 fold change": -0.342}
{"target": "SNX9 (peptide sequence: RCTGPLPK, peptide start residue: 426) (UniProt Q9Y5X1)", "log2 fold change": 0.385}
{"target": "UniProt Q9Y6W6 (peptide sequence: ITVLDLISCR, peptide start residue: 210)", "log2 fold change": -0.289}
{"target": "UniProt Q9Y3U8 (peptide sequence: REELSNVLAAMR, peptide start residue: 87)", "log2 fold change": -0.117}
{"target": "BZW2 (peptide sequence: FLDSTGSRLDYRR, peptide start residue: 51) (UniProt Q9Y6E2)", "log2 fold change": 0.787}
{"target": "AFG3L2 (peptide sequence: VALLLLEK, peptide start residue: 726) (UniProt Q9Y4W6)", "log2 fold change": 0.289}
{"target": "RAD54L2 (peptide sequence: GKGEDSTLASSMGEATNSK, peptide start residue: 664) (UniProt Q9Y4B4)", "log2 fold change": 0.489}
{"target": "UniProt Q9Y6A4 (peptide sequence: LYLPVQNK, peptide start residue: 183)", "log2 fold change": 0.0864}
{"target": "ARIH1 (peptide sequence: YFDGNLEK, peptide start residue: 149) (UniProt Q9Y4X5)", "log2 fold change": 0.116}
{"target": "ZSCAN21 (peptide sequence: QCVNLENEK, peptide start residue: 240) (UniProt Q9Y5A6)", "log2 fold change": 0.364}
{"target": "GTF3C5 (peptide sequence: DGWCLPK, peptide start residue: 436) (UniProt Q9Y5Q8)", "log2 fold change": -0.412}
{"target": "TNPO3 (peptide sequence: HTNPIVENGQTHPCQK, peptide start residue: 621) (UniProt Q9Y5L0)", "log2 fold change": 0.26}
{"target": "GPSM3 (peptide sequence: SRPPTHTC, peptide start residue: 153) (UniProt Q9Y4H4)", "log2 fold change": 0.224}
{"target": "MTCL1 (peptide sequence: LGELGSSAESK, peptide start residue: 1196) (UniProt Q9Y4B5)", "log2 fold change": -0.581}
{"target": "UniProt Q9Y678 (peptide sequence: VVVVQAISALCQKYPR, peptide start residue: 377)", "log2 fold change": 0.35}
{"target": "PRKAB1 (peptide sequence: KTDFEVFDALMVDSQK, peptide start residue: 157) (UniProt Q9Y478)", "log2 fold change": 0.206}
{"target": "UniProt Q9Y6D0 (peptide sequence: YDDGRGPPGNPPR, peptide start residue: 60)", "log2 fold change": 0.526}
{"target": "FAM32A (peptide sequence: HLDTLTEHYDIPK, peptide start residue: 95) (UniProt Q9Y421)", "log2 fold change": -0.555}
{"target": "RNF114 (peptide sequence: YQNYIMEGVK, peptide start residue: 113) (UniProt Q9Y508)", "log2 fold change": 0.144}
{"target": "NME7 (peptide sequence: RYELLFYPGDGSVEMHDVK, peptide start residue: 23) (UniProt Q9Y5B8)", "log2 fold change": -0.126}
